From patent US10363306B2, “Cytokines and neuroantigens for treatment of immune disorders” (East Carolina University, priority 2009, dated 2019)
For some assays here: At least one peptide structure holds a part that was inferred or is arguable (an end, a ring closure or a residue). Some of these results come from one statement about several compounds together. Ends that are not written are not given here.

Assays:
[1] = tested on: EAE in Lewis rats; test: Prevention of EAE by pretreatment before encephalitogenic challenge; format: in vivo
[2] = tested on: EAE in Lewis rats; test: Treatment of ongoing EAE after disease onset; format: in vivo
[3] = tested on: BN-GP T cells; test: IFNβ anti-proliferative activity in IL-2 stimulated cultures of BN-GP T cells; format: cell-based, rat; details: purified proteins; BN-GP T cells cultured in IL-2; read-out: half-maximal inhibition concentration
Procedure: FIG. 1. The IFNβ-NAg his-tagged fusion protein was biologically active and was purified on nickel resins. (A) To assess whether IFNβ-NAg induced class I MHC expression, thymocytes (5×10^6/ml in complete RPMI) were cultured with or without IFNβ-NAg for 2 days and then were stained with B5 (anti-MHC-I), OX18 (anti-MHC-I), R73 (anti-TCRβ), or OX81 (anti-IL4; isotype control) and were analyzed by flow cytometry. (B) To assess IFNβ-mediated anti-proliferative activity, supernatants from two independently derived IFNβ-NAg expression systems as well as supernatants from several control expression systems were added at designated titrations (x-axis) to IL-2 stimulated cultures of BN-GP T cells. (C) To assess the specificity of anti-proliferative activity, baculovirus supernatants containing IFNβ-NAg were added at designated titrations to cultures of rat (R1T, BN-GP, RsL.11T, RsL.11, or Conal.8D9) or mouse (CTLL) T cells. Proliferative assays (B & C) were pulsed with [^3H]thymidine on the second day of a 3-day culture. (D) Shown is a representative SDS-PAGE analysis of purified IFNβ-NAg.
FIG. 2. Structure-function analysis of the cytokine and NAg domains of IFNβ fusion proteins. (A) Expression supernatants containing designated IFNβ fusion proteins (see Table 2) were added to cultures of BN-GP T cells at designated titrations (x-axis). […]

[4] = Table 3, baculovirus-derived, 1 nmole s.c. days −21, −14, −7, challenge day 0, severe = EP or P
[5] = Table 3, baculovirus-derived, 1 nmole s.c. in saline days −21, −14, −7, challenge 50 ug DHFR-NAg in CFA day 0
[6] = Table 4 Exp. 1 & 2 combined, HEK293-derived, 1 nmole days −21, −14, −7, challenge day 0
[7] = Table 4 Exp. 1, HEK293-derived, 1 nmole in saline days −21, −14, −7, challenge DHFR-NAg in CFA day 0
[8] = Table 4 Exp. 2, HEK293-derived, 1 nmole in saline days −21, −14, −7, challenge DHFR-NAg in CFA day 0
[9] = Table 5 Exp 1-2 compiled, 1 nmole s.c. days −21, −14, −7 (IFNβ + NAg: separate injections), challenge day 0
[10] = Table 5 Exp 1, 1 nmole s.c. in saline days −21, −14, −7 (IFNβ + NAg: separate injections <0.5 cm apart), challenge DHFR-NAg in CFA day 0
[11] = Table 5 Exp 2, 1 nmole s.c. in saline days −21, −14, −7 (IFNβ + NAg: separate injections <0.5 cm apart), challenge DHFR-NAg in CFA day 0
[12] = Table 6 Experiment 1, s.c. day 9 (1 nmole), day 10 (1 nmole), day 12 (0.5 nmole) after DHFR-NAg in CFA day 0
[13] = Table 6 Experiment 2, 1 nmole s.c. on days 9, 10, 12, and 14 after DHFR-NAg in CFA day 0
[14] = Table 6 Experiments 1 & 2 compiled, treatment from day 9 after onset
[15] = Table 7 Experiment 1, 1 nmole s.c. days 10, 11, and 13, severe EAE = scores from 1.0 to 3.0
[16] = Table 7 Experiment 1, 1 nmole s.c. in saline days 10, 11, and 13, IFNβ + NAg as mixture
[17] = Table 7 Experiment 2, 1 nmole s.c. days 9, 10, 12, and 14, severe EAE = scores from 1.0 to 3.0
[18] = Table 7 Experiment 2, 1 nmole s.c. in saline days 9, 10, 12, and 14, IFNβ + NAg as mixture
[19] = Table 7 Experiment 3, 1 nmole s.c. days 9, 10, and 12, severe EAE = scores from 1.0 to 3.0
[20] = Table 7 Experiment 3, 1 nmole s.c. in saline days 9, 10, and 12, IFNβ + NAg as mixture
[21] = Table 7 Experiments 1-3 compiled, 1 nmole s.c. after onset
[22] = Table 7 Experiments 1-3 compiled, severe EAE = scores from 1.0 to 3.0

Molecule: YGSLPQKSQRSQDENPVVHF [NAg, reference compound]
- Incidence of severe EAE [1, 4]: 14 of 15
- Mean # days with severe EAE [1, 4]: 2.6 ± 1.1 days
- Incidence of EAE [1, 5]: 15 of 15
- Mean cumulative score [1, 5]: 8.4 ± 2.7
- Mean maximal score [1, 5]: 2.7 ± 0.6
- Median cumulative score [1, 5]: 8.5
- Median maximal score [1, 5]: 3.0
- Incidence of EAE [1, 6]: 8 of 8
- Incidence of severe EAE [1, 6]: 8 of 8
- Mean # days with severe EAE [1, 6]: 3.2 ± 0.7 days
- Mean cumulative score [1, 6]: 20.5 ± 3.8
- Mean maximal score [1, 6]: 3.0 ± 0.0
- Median cumulative score [1, 6]: 20.0
- Median maximal score [1, 6]: 3.0
- Mean # days with severe EAE ([1]; Table 4 Exp. 1, HEK293-derived, 1 nmole days −21, −14, −7, challenge day 0): 2.8 ± 0.3 days
- Incidence of severe EAE ([1]; Table 4 Exp. 1, HEK293-derived, 1 nmole days −21, −14, −7, challenge day 0, severe = partial or full hindlimb paralysis): 4 of 4
- Incidence of EAE [1, 7]: 4 of 4
- Mean cumulative score [1, 7]: 18.1 ± 1.8
- Mean maximal score [1, 7]: 3.0 ± 0.0
- Median cumulative score [1, 7]: 18.1
- Median maximal score [1, 7]: 3.0
- Mean # days with severe EAE ([1]; Table 4 Exp. 2, HEK293-derived, 1 nmole days −21, −14, −7, challenge day 0): 3.6 ± 0.6 days
- Incidence of severe EAE ([1]; Table 4 Exp. 2, HEK293-derived, 1 nmole days −21, −14, −7, challenge day 0, severe = partial or full hindlimb paralysis): 4 of 4
- Incidence of EAE [1, 8]: 4 of 4
- Mean cumulative score [1, 8]: 23.0 ± 3.8
- Mean maximal score [1, 8]: 3.0 ± 0.0
- Median cumulative score [1, 8]: 22.0
- Median maximal score [1, 8]: 3.0
- % mean maximal weight loss [1, 9]: 17.9 ± 5.0%
- Incidence of EAE [1, 9]: 17 of 17
- Incidence of severe EAE [1, 9]: 17 of 17
- Mean # days with severe EAE [1, 9]: 3.0 ± 0.5 days
- Mean cum. score [1, 9]: 19.0 ± 3.3
- Mean maximal score [1, 9]: 3.0 ± 0.0
- Median cum. score [1, 9]: 18.8
- Median maximal score [1, 9]: 3.0
- % mean maximal weight loss [1, 10]: 19.2 ± 2.3%
- Incidence of EAE [1, 10]: 9 of 9
- Incidence of severe EAE [1, 10]: 9 of 9
- Mean # days with severe EAE [1, 10]: 3.2 ± 0.4 days
- Mean cum. score [1, 10]: 20.7 ± 2.8
- Mean maximal score [1, 10]: 3.0 ± 0.0
- Median cum. score [1, 10]: 20.5
- Median maximal score [1, 10]: 3.0
- % mean maximal weight loss [1, 11]: 16.5 ± 6.8%
- Incidence of EAE [1, 11]: 8 of 8
- Incidence of severe EAE [1, 11]: 8 of 8
- Mean # days with severe EAE [1, 11]: 2.7 ± 0.5 days
- Mean cum. score [1, 11]: 17.0 ± 2.9
- Mean maximal score [1, 11]: 3.0 ± 0.0
- Median cum. score [1, 11]: 17.0
- Median maximal score [1, 11]: 3.0
- % mean maximal weight loss [2, 12]: 11.5 ± 4.1%
- Incidence of severe EAE [2, 12]: 4 of 6
- Mean # days with severe EAE [2, 12]: 1.4 ± 1.1 days
- Mean cum. score [2, 12]: 10.0 ± 4.9
- Mean maximal score [2, 12]: 2.1 ± 1.4
- Median cum. score [2, 12]: 11.9
- Median maximal score [2, 12]: 2.0
- % mean maximal weight loss [2, 13]: 18.4 ± 1.3%
- Incidence of severe EAE [2, 13]: 5 of 5
- Mean # days with severe EAE [2, 13]: 2.2 ± 0.8 days
- Mean cum. score [2, 13]: 16.7 ± 3.2
- Mean maximal score [2, 13]: 3.0 ± 0.0
- Median cum. score [2, 13]: 17.5
- Median maximal score [2, 13]: 3.0
- % mean maximal weight loss [2, 14]: 14.6 ± 4.7%
- Incidence of severe EAE [2, 14]: 9 of 11
- Mean # days with severe EAE [2, 14]: 1.8 ± 1.0 days
- Mean cum. score [2, 14]: 13.1 ± 5.4
- Mean maximal score [2, 14]: 2.5 ± 1.1
- Median cum. score [2, 14]: 12.8
- Median maximal score [2, 14]: 3.0
- Incidence of severe EAE [2, 15]: 3 of 4
- Mean # days with severe EAE (A-P) [2, 15]: 1.5 ± 1.1 days
- Mean cum. score [2, 16]: 7.7 ± 4.6
- Mean maximal score [2, 16]: 1.4 ± 1.1
- Median cum. score [2, 16]: 5.9
- Median maximal score [2, 16]: 1.0
- Incidence of severe EAE [2, 17]: 7 of 8
- Mean # days with severe EAE (A-P) [2, 17]: 1.4 ± 0.9 days
- Mean cum. score [2, 18]: 6.9 ± 2.3
- Mean maximal score [2, 18]: 1.9 ± 0.9
- Median cum. score [2, 18]: 7.4
- Median maximal score [2, 18]: 2.0
- Incidence of severe EAE [2, 19]: 5 of 8
- Mean # days with severe EAE (A-P) [2, 19]: 1.1 ± 1.1 days
- Mean cum. score [2, 20]: 5.8 ± 4.4
- Mean maximal score [2, 20]: 1.6 ± 1.3
- Median cum. score [2, 20]: 4.6
- Median maximal score [2, 20]: 1.5
- Mean cum. score [2, 21]: 6.6 ± 3.6
- Mean maximal score [2, 21]: 1.7 ± 1.1
- Median cum. score [2, 21]: 5.9
- Median maximal score [2, 21]: 2.0
- Incidence of severe EAE [2, 22]: 15 of 20
- Mean # days with severe EAE (A-P) [2, 22]: 1.3 ± 1.0 days

B1: IFNβ: Rat interferon beta cytokine with enterokinase linker and 6-histidine sequence, no neuroantigen (protein)
chain: IDYKQLQFRQSTSIRTCQKLLRQLNGRLNLSYRTDFKIPMEVMHPSQMEKSYTAFAIQVMLQNVFLVFRSNFSSTGWNETIVESLLDELHQQTELLEIILKEKQEERLTWVTSTTTLGLKSYYWRVQRYLKDKKYNSYAWMVVRAEVFRNFSIILRLNRNFQNGDDDDKGHHHHHH
- IC50 [3]: 1 to 10 pM
